According to PubChem BioAssay AID248 (DTP/NCI, 2004):
The list is a part of this screen's results and no random one: it gathers tests that were run many times, whatever their T/C, doses with no T/C, and many T/C values between a quarter and a half above the control. Other doses and runs of a compound stand elsewhere. T/C: endpoint of the treated group in % of that of the vehicle group. Some entries give survivors of the animals treated and no T/C: the source files T/C as zero there, which appears to mark a toxic dose or a test without result, not a measured value. Some doses without a T/C left all or most animals alive at the check, yet need not have been tolerated: the source hardly ever lists a survival T/C far under the control, and the zero likely stands for such cases as well. Counts of survivors are from the toxicity check (mostly the fifth day) where no day follows; animals may have died later. Schedules are NCI's codes, read here as Q, the interval in days (D) or hours (H), X, the number of doses. Some schedules carry Z or #; the key to these is not given. For survival time, the PubChem record calls one and a half times the control and up active, and a quarter to a half above the control has no call in these data; cut-offs in other NCI protocols can differ.

System: L1210 leukemia ip in BDF1 mice, survival T/C
Experiment: NCI In Vivo Anticancer Drug Screen. Data for tumor model L1210 Leukemia (intraperitoneal) in B6D2F1 (BDF1) mice
Details: higher T/C = longer survival
[1] = T/C endpoint: mean survival time, dose: 75.0 mg/kg/injection, schedule: Q01DX001 (ip), vehicle: saline
[2] = T/C endpoint: mean survival time, dose: 150.0 mg/kg/injection, schedule: Q01DX001 (ip), vehicle: saline
[3] = T/C endpoint: mean survival time, dose: 300.0 mg/kg/injection, schedule: Q01DX001 (ip), vehicle: saline

Question: Which survivor count (T/C endpoint: mean survival time, dose: 2.0 mg/kg/injection, schedule: Q01DX Z (ip), vehicle: carboxymethylcellulose (CMC)) does the source give for `Cn1c(N)nc2nc[nH]c2c1=S` here?
Answer: The survivor count was 1 of 6.

Question: What about the T/C (T/C endpoint: mean survival time, dose: 9.0 mg/kg/injection, schedule: Q01DX Z (ip), vehicle: methylcellulose (MC)) of the same molecule?
Answer: Its T/C is 131 % of control.

Question: What about the T/C (T/C endpoint: mean survival time, dose: 40.0 mg/kg/injection, schedule: Q01DX009 (ip), vehicle: saline) of the same molecule?
Answer: The T/C was 138 % of control.

Question: What about the T/C (T/C endpoint: median survival time, dose: 10.0 mg/kg/injection, schedule: Q01DX009 (ip), vehicle: saline) of the same molecule?
Answer: The T/C was 125 % of control.

Question: What about the T/C (T/C endpoint: median survival time, dose: 40.0 mg/kg/injection, schedule: Q01DX009 (ip), vehicle: saline) of the same molecule?
Answer: The T/C was 125 % of control.

Question: What does the source list for `CC(C)=CCNC12CC3CC(CC(C3)C1)C2`?
Answer: survivor count [1]: 3 of 6; survivor count [2]: 0 of 6; survivor count [3]: 0 of 6

Question: How did the survivor count (T/C endpoint: mean survival time, dose: 60.0 mg/kg/injection, schedule: Q01DX001 (ip), vehicle: saline) turn out when `CCc1ccc(/C=C\c2ccc(O)c(O)c2)[n+](C)c1` was run?
Answer: Its survivor count is 0 of 6.

Question: And the survivor count [1]?
Answer: Its survivor count is 0 of 6.

Question: What about the survivor count [2] of the same molecule?
Answer: The survivor count was 0 of 6.

Question: What about the survivor count [3] of the same molecule?
Answer: Its survivor count is 0 of 6.

Question: Which survivor count (T/C endpoint: mean survival time, dose: 100.0 mg/kg/injection, schedule: Q04DX003 (ip), vehicle: saline with Tween-80) does the source give for `Oc1c(Cl)cc(Cl)c(Cl)c1Cc1c(O)c(Cl)cc(Cl)c1Cl` here?
Answer: Its survivor count is 0 of 6.

Question: What about the survivor count (T/C endpoint: mean survival time, dose: 200.0 mg/kg/injection, schedule: Q04DX003 (ip), vehicle: saline with Tween-80) of the same molecule?
Answer: Its survivor count is 0 of 6.

Question: What about the survivor count (T/C endpoint: mean survival time, dose: 400.0 mg/kg/injection, schedule: Q04DX003 (ip), vehicle: saline with Tween-80) of the same molecule?
Answer: The survivor count was 0 of 6.

Question: Which T/C (T/C endpoint: mean survival time, dose: 30.0 mg/kg/injection, schedule: Q04DX003 (ip), vehicle: Klucel (hydroxypropylcellulose) (HPC)) does the source give for `Cc1cc(N(CCOS(C)(=O)=O)CCOS(C)(=O)=O)ccc1C=Nc1ccc2ccccc2c1` here?
Answer: The T/C was 132 % of control.

Question: And the T/C (T/C endpoint: mean survival time, dose: 40.0 mg/kg/injection, schedule: Q04DX003 (ip), vehicle: Klucel (hydroxypropylcellulose) (HPC))?
Answer: Its T/C is 128 % of control.

Question: And the survivor count (T/C endpoint: mean survival time, dose: 100.0 mg/kg/injection, schedule: Q04DX003 (ip), vehicle: Klucel (hydroxypropylcellulose) (HPC))?
Answer: Its survivor count is 6 of 6.

Question: What about the survivor count (T/C endpoint: mean survival time, dose: 200.0 mg/kg/injection, schedule: Q04DX003 (ip), vehicle: Klucel (hydroxypropylcellulose) (HPC)) of the same molecule?
Answer: Its survivor count is 6 of 6.

Question: And the survivor count (T/C endpoint: mean survival time, dose: 400.0 mg/kg/injection, schedule: Q04DX003 (ip), vehicle: Klucel (hydroxypropylcellulose) (HPC))?
Answer: The survivor count was 0 of 6.

Question: Which survivor count (T/C endpoint: mean survival time, dose: 400.0 mg/kg/injection, schedule: Q04DX002 (ip), vehicle: saline) does the source give for `CCCCCCC#CC(=O)OCC` here?
Answer: Its survivor count is 3 of 3.

Question: What does the source list for `C[N+](C)(CC(=O)Nc1ccc(Cl)cc1)Cc1ccc2c(c1)CCCC2`?
Answer: survivor count (T/C endpoint: mean survival time, dose: 50.0 mg/kg/injection, schedule: Q04DX002 (ip), vehicle: saline with Tween-80): 1 of 3; survivor count (T/C endpoint: mean survival time, dose: 100.0 mg/kg/injection, schedule: Q04DX002 (ip), vehicle: saline with Tween-80): 0 of 3

Question: For `CC(C)C(O)C1(C)CC1` (stereo not given), which survivor count (T/C endpoint: mean survival time, dose: 400.0 mg/kg/injection, schedule: Q01DX009 (ip), vehicle: saline with Tween-80) is on record?
Answer: Its survivor count is 6 of 6.

Question: Which T/C (T/C endpoint: mean survival time, dose: 75.0 mg/kg/injection, schedule: Q04DX003 (ip), vehicle: saline) does the source give for `CC(C)=NC(=O)NO.[Cl][Co][Cl]` here?
Answer: The T/C was 126 % of control.

Question: What about the survivor count [2] of the same molecule?
Answer: Its survivor count is 0 of 6.

Question: And the survivor count (T/C endpoint: mean survival time, dose: 150.0 mg/kg/injection, schedule: Q04DX003 (ip), vehicle: saline)?
Answer: Its survivor count is 4 of 6.

Question: And the survivor count [3]?
Answer: Its survivor count is 0 of 6.

Question: For `COc1ccc([N+](=O)[O-])cc1NC(=O)Nc1ccccc1C(F)(F)F`, which survivor count (T/C endpoint: mean survival time, dose: 200.0 mg/kg/injection, schedule: Q01DX009 (ip), vehicle: Klucel (hydroxypropylcellulose) (HPC)) is on record?
Answer: Its survivor count is 6 of 6.

Question: What about the survivor count (T/C endpoint: mean survival time, dose: 400.0 mg/kg/injection, schedule: Q01DX009 (ip), vehicle: Klucel (hydroxypropylcellulose) (HPC)) of the same molecule?
Answer: Its survivor count is 6 of 6.

Question: `CCCCCC[Se]CCCCCC` was tested. Which survivor count (T/C endpoint: mean survival time, dose: 100.0 mg/kg/injection, schedule: Q01DX009 (ip), vehicle: saline) did it give?
Answer: The survivor count was 0 of 6.

Question: What about the survivor count (T/C endpoint: mean survival time, dose: 200.0 mg/kg/injection, schedule: Q01DX009 (ip), vehicle: saline) of the same molecule?
Answer: The survivor count was 0 of 6.

Question: And the survivor count (T/C endpoint: mean survival time, dose: 200.0 mg/kg/injection, schedule: Q04DX003 (ip), vehicle: saline)?
Answer: The survivor count was 1 of 6.

Question: What about the survivor count (T/C endpoint: mean survival time, dose: 400.0 mg/kg/injection, schedule: Q04DX003 (ip), vehicle: saline) of the same molecule?
Answer: Its survivor count is 0 of 6.

Question: How did the T/C (T/C endpoint: mean survival time, dose: 25.0 mg/kg/injection, schedule: Q01DX001 (ip), vehicle: other) turn out when `O=NN(CCF)C(=O)NC1CCC(NC(=O)N(CCF)N=O)CC1` (stereo not given) was run?
Answer: The T/C was 128 % of control.
